Laboratory results published in US10624972B2 (priority 2015, dated 2020).

Assay: general procedure: peptide synthesis; PyBOP/DIPEA
Conditions: conjugation step

## PEPTIDE1{[Pte].[gGlu].[Glu_glucamide].[dE].[Glu_glucamide].[dE].[Glu_glucamide].[dC]}|CHEM1{[SEt-proPBD-Hoechst]}$PEPTIDE1,CHEM1,8:R3-1:R1$$$V2.0
  conjugation yield: 30%

Strings that start with PEPTIDE1 are HELM notation: dots part the residues, brackets hold end groups and non-standard residues.
